Measurements: the supplement of paper PMC10849652
The other results are listed elsewhere or left out.

By UniProt entry, the sequences of proteins in these tests, tags left out. Where a name states a change or a piece, a line headed by the entry shows the natural chain unless it says otherwise.
UniProt P09110: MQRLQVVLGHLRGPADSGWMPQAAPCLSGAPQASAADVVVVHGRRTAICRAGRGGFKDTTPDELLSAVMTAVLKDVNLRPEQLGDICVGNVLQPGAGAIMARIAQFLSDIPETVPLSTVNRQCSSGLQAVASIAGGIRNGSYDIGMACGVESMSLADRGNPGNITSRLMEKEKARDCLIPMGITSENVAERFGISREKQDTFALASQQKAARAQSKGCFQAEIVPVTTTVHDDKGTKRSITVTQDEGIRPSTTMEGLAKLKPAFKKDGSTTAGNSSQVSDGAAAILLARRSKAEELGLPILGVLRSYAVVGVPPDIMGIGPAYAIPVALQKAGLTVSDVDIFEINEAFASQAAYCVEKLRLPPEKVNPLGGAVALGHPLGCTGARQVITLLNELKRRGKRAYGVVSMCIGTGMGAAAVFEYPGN
UniProt Q13685: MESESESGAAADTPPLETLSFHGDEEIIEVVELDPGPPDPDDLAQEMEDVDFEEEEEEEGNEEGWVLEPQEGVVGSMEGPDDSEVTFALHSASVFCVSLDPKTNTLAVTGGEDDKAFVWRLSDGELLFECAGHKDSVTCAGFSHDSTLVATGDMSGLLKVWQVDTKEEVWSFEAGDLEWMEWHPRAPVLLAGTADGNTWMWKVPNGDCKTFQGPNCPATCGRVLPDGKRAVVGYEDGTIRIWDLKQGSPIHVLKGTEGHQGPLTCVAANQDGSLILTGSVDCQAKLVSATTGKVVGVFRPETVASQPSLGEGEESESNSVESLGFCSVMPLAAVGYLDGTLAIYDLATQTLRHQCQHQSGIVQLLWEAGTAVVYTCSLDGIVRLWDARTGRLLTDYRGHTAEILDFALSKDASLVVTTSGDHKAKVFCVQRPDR
UniProt Q9ULW3: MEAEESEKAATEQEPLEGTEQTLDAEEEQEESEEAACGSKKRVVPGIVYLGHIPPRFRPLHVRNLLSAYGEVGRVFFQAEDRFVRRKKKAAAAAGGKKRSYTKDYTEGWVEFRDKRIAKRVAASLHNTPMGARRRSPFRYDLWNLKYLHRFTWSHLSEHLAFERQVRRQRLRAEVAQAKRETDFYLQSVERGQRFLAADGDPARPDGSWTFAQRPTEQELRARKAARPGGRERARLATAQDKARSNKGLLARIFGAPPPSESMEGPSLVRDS
UniProt Q96P50: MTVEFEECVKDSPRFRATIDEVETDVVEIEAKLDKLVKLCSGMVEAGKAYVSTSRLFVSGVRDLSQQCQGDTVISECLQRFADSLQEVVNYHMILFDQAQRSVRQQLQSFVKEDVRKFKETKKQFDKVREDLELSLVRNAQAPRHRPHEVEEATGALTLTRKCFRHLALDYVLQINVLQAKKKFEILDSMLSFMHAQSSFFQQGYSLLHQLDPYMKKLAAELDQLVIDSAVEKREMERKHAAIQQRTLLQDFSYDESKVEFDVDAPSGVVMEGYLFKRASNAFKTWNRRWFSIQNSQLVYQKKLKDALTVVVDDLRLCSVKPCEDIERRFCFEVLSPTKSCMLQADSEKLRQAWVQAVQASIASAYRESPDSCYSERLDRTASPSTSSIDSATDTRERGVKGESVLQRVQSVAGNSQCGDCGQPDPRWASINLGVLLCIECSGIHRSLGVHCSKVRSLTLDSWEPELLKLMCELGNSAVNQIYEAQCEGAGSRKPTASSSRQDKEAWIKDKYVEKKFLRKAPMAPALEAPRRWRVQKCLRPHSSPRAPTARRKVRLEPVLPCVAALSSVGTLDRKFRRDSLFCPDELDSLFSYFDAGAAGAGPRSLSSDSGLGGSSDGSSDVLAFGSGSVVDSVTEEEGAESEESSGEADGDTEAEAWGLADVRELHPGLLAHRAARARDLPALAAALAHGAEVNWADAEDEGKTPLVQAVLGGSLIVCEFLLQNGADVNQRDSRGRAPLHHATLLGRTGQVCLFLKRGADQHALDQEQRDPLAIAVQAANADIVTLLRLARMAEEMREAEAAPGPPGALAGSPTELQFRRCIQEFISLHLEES
UniProt Q15027: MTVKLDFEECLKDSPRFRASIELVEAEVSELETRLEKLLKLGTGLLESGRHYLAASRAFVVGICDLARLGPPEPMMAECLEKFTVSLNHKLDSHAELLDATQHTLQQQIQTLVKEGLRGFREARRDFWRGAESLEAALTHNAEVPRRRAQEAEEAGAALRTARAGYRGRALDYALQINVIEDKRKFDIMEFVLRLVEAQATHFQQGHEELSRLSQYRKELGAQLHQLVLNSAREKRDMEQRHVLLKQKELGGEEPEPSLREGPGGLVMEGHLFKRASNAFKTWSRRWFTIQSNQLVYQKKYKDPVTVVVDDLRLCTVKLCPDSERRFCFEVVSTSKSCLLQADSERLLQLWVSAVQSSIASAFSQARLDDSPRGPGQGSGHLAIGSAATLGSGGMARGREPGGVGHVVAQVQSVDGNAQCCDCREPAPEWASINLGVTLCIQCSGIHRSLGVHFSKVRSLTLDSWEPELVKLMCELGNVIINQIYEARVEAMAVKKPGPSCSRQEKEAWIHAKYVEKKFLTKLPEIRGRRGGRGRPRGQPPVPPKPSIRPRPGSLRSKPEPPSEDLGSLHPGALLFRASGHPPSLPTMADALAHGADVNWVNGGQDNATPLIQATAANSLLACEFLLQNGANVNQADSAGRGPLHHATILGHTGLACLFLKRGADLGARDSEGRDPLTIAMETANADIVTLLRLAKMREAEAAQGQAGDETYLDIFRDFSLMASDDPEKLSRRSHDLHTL
UniProt Q5T3U5: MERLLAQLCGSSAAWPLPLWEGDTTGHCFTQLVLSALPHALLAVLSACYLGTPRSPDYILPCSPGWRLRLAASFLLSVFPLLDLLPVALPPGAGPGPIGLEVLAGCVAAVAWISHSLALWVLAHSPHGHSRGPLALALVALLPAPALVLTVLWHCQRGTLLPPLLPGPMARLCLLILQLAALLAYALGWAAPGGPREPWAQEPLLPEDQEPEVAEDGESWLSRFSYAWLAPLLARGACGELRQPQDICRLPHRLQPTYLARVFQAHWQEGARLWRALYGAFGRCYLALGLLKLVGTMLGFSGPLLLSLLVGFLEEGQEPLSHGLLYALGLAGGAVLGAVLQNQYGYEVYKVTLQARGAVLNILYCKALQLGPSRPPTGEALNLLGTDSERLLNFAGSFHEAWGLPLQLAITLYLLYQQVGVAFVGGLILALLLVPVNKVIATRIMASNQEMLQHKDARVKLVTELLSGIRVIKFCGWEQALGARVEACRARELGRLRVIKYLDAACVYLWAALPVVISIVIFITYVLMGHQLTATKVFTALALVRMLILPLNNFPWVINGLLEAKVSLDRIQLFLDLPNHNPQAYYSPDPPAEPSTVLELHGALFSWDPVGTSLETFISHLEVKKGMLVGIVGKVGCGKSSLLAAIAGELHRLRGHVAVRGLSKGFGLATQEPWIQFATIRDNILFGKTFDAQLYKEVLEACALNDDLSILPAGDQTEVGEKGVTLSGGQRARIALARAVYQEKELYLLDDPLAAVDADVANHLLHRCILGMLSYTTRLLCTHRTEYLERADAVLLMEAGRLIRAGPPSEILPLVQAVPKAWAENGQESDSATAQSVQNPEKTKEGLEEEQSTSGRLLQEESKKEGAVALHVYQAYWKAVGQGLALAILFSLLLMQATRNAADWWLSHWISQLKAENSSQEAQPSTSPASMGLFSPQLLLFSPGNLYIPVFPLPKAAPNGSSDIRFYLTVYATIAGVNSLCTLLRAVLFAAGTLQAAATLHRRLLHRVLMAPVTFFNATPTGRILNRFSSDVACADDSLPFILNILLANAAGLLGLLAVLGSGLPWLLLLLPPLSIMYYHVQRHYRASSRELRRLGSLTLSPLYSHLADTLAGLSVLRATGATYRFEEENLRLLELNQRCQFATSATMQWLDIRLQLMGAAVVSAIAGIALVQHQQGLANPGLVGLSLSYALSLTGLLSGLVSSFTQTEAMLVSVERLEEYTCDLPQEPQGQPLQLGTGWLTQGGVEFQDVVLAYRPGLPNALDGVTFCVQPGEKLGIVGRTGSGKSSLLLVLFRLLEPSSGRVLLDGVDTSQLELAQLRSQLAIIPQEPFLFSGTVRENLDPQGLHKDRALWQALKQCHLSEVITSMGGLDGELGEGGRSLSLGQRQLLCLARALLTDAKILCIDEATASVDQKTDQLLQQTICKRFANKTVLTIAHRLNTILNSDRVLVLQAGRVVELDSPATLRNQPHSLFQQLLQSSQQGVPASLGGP
UniProt Q0P651: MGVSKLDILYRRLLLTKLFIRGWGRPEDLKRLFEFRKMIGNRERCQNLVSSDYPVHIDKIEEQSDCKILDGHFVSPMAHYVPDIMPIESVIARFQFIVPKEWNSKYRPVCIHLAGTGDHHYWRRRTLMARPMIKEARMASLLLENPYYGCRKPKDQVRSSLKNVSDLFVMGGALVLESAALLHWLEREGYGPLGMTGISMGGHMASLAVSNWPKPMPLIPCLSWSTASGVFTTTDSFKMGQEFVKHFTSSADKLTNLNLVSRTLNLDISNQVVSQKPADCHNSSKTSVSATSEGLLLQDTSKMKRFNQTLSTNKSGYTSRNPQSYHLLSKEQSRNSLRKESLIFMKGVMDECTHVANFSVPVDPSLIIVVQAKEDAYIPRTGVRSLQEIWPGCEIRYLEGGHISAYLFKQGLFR
UniProt Q9UKU7: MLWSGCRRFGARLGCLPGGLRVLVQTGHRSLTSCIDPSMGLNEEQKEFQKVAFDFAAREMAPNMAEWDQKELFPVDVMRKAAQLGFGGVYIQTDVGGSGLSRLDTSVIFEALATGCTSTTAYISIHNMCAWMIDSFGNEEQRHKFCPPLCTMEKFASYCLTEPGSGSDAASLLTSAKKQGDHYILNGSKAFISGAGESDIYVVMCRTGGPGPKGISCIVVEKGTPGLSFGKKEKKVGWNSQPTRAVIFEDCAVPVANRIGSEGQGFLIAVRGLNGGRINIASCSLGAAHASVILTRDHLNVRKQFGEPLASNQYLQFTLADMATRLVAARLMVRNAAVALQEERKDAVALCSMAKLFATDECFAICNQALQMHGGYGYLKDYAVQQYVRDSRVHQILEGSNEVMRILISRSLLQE
UniProt Q4L235: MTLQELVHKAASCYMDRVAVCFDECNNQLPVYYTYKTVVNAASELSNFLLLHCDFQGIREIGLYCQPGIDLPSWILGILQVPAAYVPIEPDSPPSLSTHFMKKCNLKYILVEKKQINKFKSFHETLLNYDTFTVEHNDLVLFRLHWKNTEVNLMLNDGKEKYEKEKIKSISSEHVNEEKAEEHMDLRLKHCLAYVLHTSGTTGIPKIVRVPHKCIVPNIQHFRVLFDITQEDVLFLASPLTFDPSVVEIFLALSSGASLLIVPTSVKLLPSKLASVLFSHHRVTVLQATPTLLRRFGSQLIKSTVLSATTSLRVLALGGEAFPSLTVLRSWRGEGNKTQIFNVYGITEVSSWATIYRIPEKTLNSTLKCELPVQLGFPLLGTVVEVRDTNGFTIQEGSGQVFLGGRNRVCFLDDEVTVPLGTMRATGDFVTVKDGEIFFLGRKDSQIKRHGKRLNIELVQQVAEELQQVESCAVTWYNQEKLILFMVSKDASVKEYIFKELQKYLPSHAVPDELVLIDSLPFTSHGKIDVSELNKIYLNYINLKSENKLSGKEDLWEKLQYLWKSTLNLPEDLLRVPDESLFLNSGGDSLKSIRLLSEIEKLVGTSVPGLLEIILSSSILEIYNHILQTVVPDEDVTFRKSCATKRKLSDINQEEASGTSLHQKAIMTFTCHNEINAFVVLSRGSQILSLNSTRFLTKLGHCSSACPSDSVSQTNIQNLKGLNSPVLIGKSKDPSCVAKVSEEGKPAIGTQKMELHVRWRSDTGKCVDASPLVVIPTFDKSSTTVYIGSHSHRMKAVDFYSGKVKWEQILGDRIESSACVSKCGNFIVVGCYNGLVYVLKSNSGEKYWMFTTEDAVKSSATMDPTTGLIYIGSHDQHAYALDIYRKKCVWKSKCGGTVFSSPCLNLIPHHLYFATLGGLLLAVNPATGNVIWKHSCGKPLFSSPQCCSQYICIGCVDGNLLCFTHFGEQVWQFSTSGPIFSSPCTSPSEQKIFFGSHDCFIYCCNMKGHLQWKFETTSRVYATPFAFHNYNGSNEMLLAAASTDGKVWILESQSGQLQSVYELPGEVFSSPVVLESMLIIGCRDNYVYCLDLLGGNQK
UniProt Q6PD74: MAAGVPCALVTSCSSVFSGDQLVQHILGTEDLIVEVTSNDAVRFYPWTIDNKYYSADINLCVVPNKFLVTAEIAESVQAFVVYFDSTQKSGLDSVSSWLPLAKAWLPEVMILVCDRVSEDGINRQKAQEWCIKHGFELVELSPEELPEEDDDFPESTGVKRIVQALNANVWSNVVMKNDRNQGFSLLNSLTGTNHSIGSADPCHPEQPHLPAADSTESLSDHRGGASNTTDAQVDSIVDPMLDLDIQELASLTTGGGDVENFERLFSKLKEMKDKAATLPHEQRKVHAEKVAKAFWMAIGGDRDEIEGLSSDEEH
UniProt Q9H7C9: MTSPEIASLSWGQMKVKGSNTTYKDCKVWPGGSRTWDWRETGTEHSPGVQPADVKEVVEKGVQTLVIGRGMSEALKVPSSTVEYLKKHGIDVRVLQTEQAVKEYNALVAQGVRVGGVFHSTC

Tests used:
Experiment in all cases: log2 fold change, soluble protein after heating vs DMSO (PISA); higher = thermal stabilisation; K562 lysate, 10 uM; active = over 0.2 and 3.5 SD of the protein, either way, in both replicates (recomputed)
[1] = compound: NCC(=O)Nc1ccc(-n2nc(C(F)(F)F)cc2-c2ccc3c(ccc4ccccc43)c2)cc1
Method in brief: (§1)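 Dounce homogenisation of K562 pellets in PBS pH 7.4 with 1 mM MgCl2 produced a crude extract, used at 1 mg/mL protein. Exposure to 10 μM compound lasted 30 min, and aliquots were then heated for 3 min across 48°C-58°C, pooled and brought to 0.5% NP-40 at 4°C. The supernatant after 21,000xg for 90 min was quantified by TMTpro 16plex LC-MS/MS with channel sums equalised. Duplicate values are given as log-two fold change in thermal stability relative to solvent controls.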

[2] = compound: O=C(CCCCCCC(=O)Nc1ccccc1)NO [vorinostat]
Method in brief: as §1

[3] = compound: O=C(O)c1ccc2c(c1)nc(Nc1cccc(Cl)c1)c1ccncc12 [silmitasertib]
Method in brief: as §1

[4] = compound: O=C1NC(=O)C(c2cnc3ccccn23)=C1c1cn2c3c(cc(F)cc13)CN(C(=O)N1CCCCC1)CC2
Method in brief: as §1

[5] = compound: c1cn2cc(-c3ccc4cn[nH]c4c3)nc(Nc3ccc(N4CCOCC4)cc3)c2n1 [entospletinib]
Method in brief: as §1

Target | log2 fold change [1] | log2 fold change [2] | log2 fold change [3] | log2 fold change [4] | log2 fold change [5]
ACAA1 (UniProt P09110) | inactive: -0.005 | active: -0.332 | inactive: -0.039 | inactive: 0.033 | inactive: 0.038
ABITRAM (UniProt Q9NX38) | inactive: 0.043 | inactive: -0.249 | inactive: 0.028 | inactive: 0.005 | inactive: -0.012
ABCB6 (UniProt Q9NP58) | inactive: 0.005 | inactive: 0.041 | inactive: -0.038 | inactive: -0.004 | inactive: 0.048
ACACB (UniProt O00763) | inactive: -0.026 | active: -0.438 | inactive: 0.03 | inactive: -0.009 | inactive: 0.088
ABCC4 (UniProt O15439) | inactive: 0.003 | inactive: 0.034 | inactive: -0.029 | inactive: 0.001 | inactive: 0.009
AAMP (UniProt Q13685) | inactive: -0.008 | inactive: 0.022 | inactive: -0.009 | inactive: -0.013 | inactive: 0.014
ABRAXAS2 (UniProt Q15018) | inactive: 0.001 | inactive: 0.089 | inactive: -0.011 | inactive: 0.007 | inactive: -0.017
ABT1 (UniProt Q9ULW3) | inactive: 0.109 | inactive: -0.121 | inactive: 0.062 | inactive: -0.056 | inactive: -0.113
ACD (UniProt Q96AP0) |  |  |  | inactive: -0.068 | 
ABHD13 (UniProt Q7L211) | inactive: 0.023 |  |  | inactive: 0.027 | inactive: -0.12
ACADM isoform 2 (UniProt P11310) | inactive: -0.015 | active: 0.344 | inactive: -0.015 | inactive: 0.023 | inactive: 0.016
ACCS (UniProt Q96QU6) | inactive: 0.095 | inactive: 0.013 | inactive: 0.017 | inactive: 0.106 | inactive: 0.07
ACAP3 (UniProt Q96P50) |  |  |  |  | inactive: 0.062
ABCA8 isoform 3 (UniProt O94911) |  | inactive: 0.273 | inactive: -0.038 | inactive: -0.062 | 
AARSD1 (UniProt Q9BTE6) |  |  |  |  | inactive: -0.048
ACAP1 (UniProt Q15027) |  |  |  | inactive: -0.122 | 
ACBD5 (UniProt Q5T8D3) |  | inactive: 0.152 | inactive: 0.004 |  | 
ACBD7 (UniProt Q8N6N7) |  | inactive: 0.08 | inactive: 0.06 |  | 
A0A096LPI6, A0A096LPI6 | inactive: -0.003 | inactive: 0.089 | inactive: -0.003 | inactive: 0.014 | inactive: -0.025
ABCE1 (UniProt P61221) | inactive: 0.001 | inactive: 0.104 | inactive: -0.045 | inactive: -0.015 | inactive: 0.072

Full records as entered above:
ACAP1 (UniProt Q15027) is listed with log2 fold change [4]: inactive: -0.122
ACACB (UniProt O00763) is listed with log2 fold change [1]: inactive: -0.026; log2 fold change [2]: active: -0.438; log2 fold change [3]: inactive: 0.03; log2 fold change [4]: inactive: -0.009; log2 fold change [5]: inactive: 0.088

Later entries

Target | log2 fold change [1] | log2 fold change [2] | log2 fold change [3] | log2 fold change [4] | log2 fold change [5]
ABRACL (UniProt Q9P1F3) |  | active: -0.845 | inactive: 0.111 | inactive: 0.088 | 
ABCC10 (UniProt Q5T3U5) |  | inactive: 0 | inactive: 0.044 |  | 
ACLY isoform 2 (UniProt P53396) | inactive: 0.091 |  |  | inactive: -0.061 | inactive: -0.047
ACADSB (UniProt P45954) | inactive: -0.013 | inactive: -0.029 | inactive: -0.052 | inactive: 0.009 | inactive: -0.034
ABHD18 (UniProt Q0P651) |  | inactive: -0.053 | inactive: -0.001 |  | inactive: 0
ACAD10 isoform 5 (UniProt Q6JQN1) |  | inactive: -0.103 | inactive: 0.068 | inactive: 0.067 | inactive: -0.037
ABI1 isoform 6 (UniProt Q8IZP0) |  |  |  |  | inactive: -0.115
ACBD3 (UniProt Q9H3P7) | inactive: 0.035 | inactive: -0.077 | inactive: -0.021 | inactive: -0.006 | inactive: 0.014
ABHD15 (UniProt Q6UXT9) | inactive: 0.038 | inactive: 0.086 | inactive: 0.01 |  | inactive: -0.043
ACAD8 (UniProt Q9UKU7) | inactive: -0.012 |  |  | inactive: 0.007 | 
AASDHPPT (UniProt Q9NRN7) | inactive: 0.02 | inactive: 0.019 | inactive: 0.015 | inactive: 0.012 | inactive: 0.008
AASDH (UniProt Q4L235) | inactive: 0.114 | inactive: -0.122 | inactive: -0.059 |  | inactive: -0.102
ABCA7 (UniProt Q8IZY2) |  |  |  | inactive: 0.231 | 
AAGAB (UniProt Q6PD74) | inactive: 0.014 | inactive: 0.05 | inactive: -0.006 | inactive: 0.009 | inactive: -0.03
AAR2 (UniProt Q9Y312) | inactive: 0.009 | inactive: 0.001 | inactive: 0.009 | inactive: 0.007 | inactive: -0.015
AAMDC (UniProt Q9H7C9) | inactive: -0.079 | inactive: 0.089 | inactive: -0.053 | inactive: 0.001 | inactive: -0.074
ABCC3 isoform 4 (UniProt O15438) |  |  |  | inactive: 0.043 | 
ABCD4 (UniProt O14678) |  | inactive: 0.123 | inactive: 0.072 |  | 
A2ML1 (UniProt A8K2U0) |  | inactive: 0.048 | inactive: -0.044 | inactive: 0.437 | 
